In one test the target is Flag-HOIP (human) (UniProt Q96EP0). The test can be described thus: co-IP; HEK 293T cells co-transfected with Myc-tagged candidate and Flag-HOIP or Flag-OTULIN; lysis in 50 mM Tris-HCl pH 7.4, 150 mM NaCl, 5 mM EDTA, 1% Triton X-100; protein A/G agarose, 4 C overnight; immunoblot. In general terms: A western blot detects proteins with antibodies after separation by electrophoresis.

A further test addresses Flag-OTULIN (human) (UniProt Q96BN8). The test is described as above.

The values that follow come from PMC8274477.

Results are given in words; binding and its absence hold for the method and conditions named. Binding seen in cells or lysates may run through a third protein. Some results given as binding are weak or reduced against the parent protein; the word gives no strength. Where a sequence is shown, tags or fusion partners need not be part of it.

B1: Myc-LAG3 wild type (lymphocyte activation gene-3, CD223) (receptor, UniProt P18627 23-525)
chain: LQPGAEVPVVWAQEGAPAQLPCSPTIPLQDLSLLRRAGVTWQHQPDSGPPAAAPGHPLAPGPHPAAPSSWGPRPRRYTVLSVGPGGLRSGRLPLQPRVQLDERGRQRGDFSLWLRPARRADAGEYRAAVHLRDRALSCRLRLRLGQASMTASPPGSLRASDWVILNCSFSRPDRPASVHWFRNRGQGRVPVRESPHHHLAESFLFLPQVSPMDSGPWGCILTYRDGFNVSIMYNLTVLGLEPPTPLTVYAGAGSRVGLPCRLPAGVGTRSFLTAKWTPPGGGPDLLVTGDNGDFTLRLEDVSQAQAGTYTCHIHLQEQQLNATVTLAIITVTPKSFGSPGSLGKLLCEVTPVSGQERFVWSSLDTPSQRSFSGPWLEAQEAQLLSQPWQCQLYQGERLLGAAVYFTELSSPGAQRSGRAPGALPAGHLLLFLILGVLSLLLLVTGAFGFHLWRRQWRPRRFSALEQGIHPPQAQSKIEELEQEPEPEPEPEPEPEPEPEPEQL
Regarding B1, the binding result in the test with Flag-HOIP (human) and with Flag-OTULIN (human) was “binds” each time.
